Results taken from PMC11570452, “MOTS-c modulates skeletal muscle function by directly binding and activating CK2” (iScience, 2024).
These are yes or no findings as the source states them, for the method shown. In cells and extracts the contact can be indirect. Here binding means that the protein was enriched with, or labelled near, the bait; the list need not be complete.

Sequences of proteins named here, by UniProt entry; tags and fusion partners are left off.
UniProt Q60737: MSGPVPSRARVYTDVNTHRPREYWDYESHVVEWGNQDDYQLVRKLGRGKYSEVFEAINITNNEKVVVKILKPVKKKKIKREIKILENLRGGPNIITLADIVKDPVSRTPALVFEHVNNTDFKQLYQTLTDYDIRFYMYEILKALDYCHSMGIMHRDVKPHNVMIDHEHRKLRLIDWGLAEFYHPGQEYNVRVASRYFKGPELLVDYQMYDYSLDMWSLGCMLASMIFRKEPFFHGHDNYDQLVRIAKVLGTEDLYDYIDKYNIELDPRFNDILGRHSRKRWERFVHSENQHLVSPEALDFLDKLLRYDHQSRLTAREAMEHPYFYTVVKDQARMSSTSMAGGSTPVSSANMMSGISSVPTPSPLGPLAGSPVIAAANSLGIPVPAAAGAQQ

B1: ubiquinol-cytochrome c reductase core protein 1 (UQCRC1) (protein, UniProt Q9CZ13 35-480)
chain: TATFAQALQSVPETQVSILDNGLRVASEQSSHATCTVGVWIDAGSRYETEKNNGAGYFLEHLAFKGTKNRPGNALEKEVESIGAHLNAYSTREHTAYLIKALSKDLPKVVELLADIVQNSSLEDSQIEKERDVILREMQENDASMQNVVFDYLHATAFQGTPLAQAVEGPSENVRRLSRTDLTDYLNRHYKAPRMVLAAAGGVEHQQLLDLAQKHLSSVSRVYEEDAVPGLTPCRFTGSEIRHRDDALPLAHVAIAVEGPGWANPDNVTLQVANAIIGHYDCTYGGGVHLSSPLASVAVANKLCQSFQTFNISYSDTGLLGAHFVCDAMSIDDMVFFLQGQWMRLCTSATESEVTRGKNILRNALVSHLDGTTPVCEDIGRSLLTYGRRIPLAEWESRIQEVDAQMLRDICSKYFYDQCPAVAGYGPIEQLPDYNRIRSGMFWLRF
B2: nuclear casein kinase and cyclin-dependent kinase substrate 1 (NUCKS1) (protein, UniProt Q80XU3 1-234)
chain: MSRPVRNRKVVDYSQFQESDDADEDYGRDSGPPAKKIRSSPREAKNKRRSGKNSQEDSEDSEEKDVKTKKDDSHSAEDSEDEKDDHKNVRQQRQAASKAASKQREMLLEDVGSEEEPEEDDEAPFQEKDSGSDEDFLMEDDDDSDYGSSKKKNKKMVKKSKPERKEKKMPKPRLKATVTPSPVKGKAKVGRPTASKKSKEKTPSPKEEDEEAESPPEKKSGDEGSEDEASSGED
B3: synaptojanin 2 (SYNJ2) (protein, UniProt Q9D2G5 1-1434)
chain: MALSKGLRLLARLDPTGPSSVLLEARGRGDCLLFEAGAVATLAPEEKEVIKGLYSKLTDAYGCLGELRLQSGGVPLSFLVLVTGCMSVGRIPDAEIYKITATELYPLQEEAKEEDRLPTLKKILSSGVFYFAWPNDGACFDLTIRAQKQGDDGSEWGTSFFWNQLLHVPLRQHQVNCHNWLLKVICGVVTIRTVYASHKQAKACLISRISCERAGARFLTRGVNDDGHVSNFVETEQTIYMDDGVSSFVQIRGSVPLFWEQPGLQVGSHHLRLHRGLEANAPAFERHMVLLKEQYGKQVVVNLLGSRGGEEVLNRAFKKLLWASCHAGDTPMINFDFHQFAKGRKLEKLENLLRPQLQLHWEDFGVFAKGENVSPRFQKGTLRMNCLDCLDRTNTVQCFIALEVLHLQLESLGLNSKPIIDRFVESFKAMWSLNGHSLSKVFTGSRALEGKAKVGKLKDGARSMSRTIQSNFFDGVKQEAIKLLLVGDVYNEESTDKGRMLLDNTALLATPRILKAMTERQSEFTNFKRIQIAVGTWNVNGGKQFRSNLLGTAELTDWLLDAPQLSGAVDSQDDGSPADVFAIGFEEMVELSAGNIVNASTTNRKMWGEQLQKAISRSHRYILLTSAQLVGVCLYIFVRPYHVPFIRDVAIDTVKTGMGGKAGNKGAVGIRFQLHSTSFCFVCSHLTAGQSQVKERNEDYREITHKLSFPSGRNIFSHDYVFWCGDFNYRIDLTYEEVFYFVKRQDWKKLMEFDQLQLQKSSGKIFKDFHEGAVNFGPTYKYDVGSAAYDTSDKCRTPAWTDRVLWWRKKHPYDKTAGELNLLDSDLDGDPQIRHTWSPGTLKYYGRAELQASDHRPVLAIVEVEVQEVDVGARERVFQEVSSVQGPLDATVVVNLQSPTLEEKNEFPEDLRTELMQTLGNYGTIILVRINQGQMLVTFADSHSALSVLDVDGMKVKGRAVKIRPKTKDWLEGLREELLRKRDSMAPVSPTANSCLLEENFDFSSLDYESEGDVLEEDEDYLVDGFGQPVVSDSELGGDNSSDTMSSLTPASKSPALAKKKQHPTYKAGLMVKKSASDASISSGTHGQYSILQTAKLLPGAPQQPPKARTGISKPYNVKQIKTTNAQEAEAAIRCLLEASGGVPESAPGAIPLRNQGSSKPEATLGPPALPRRPAPRVPTMKKPTLRRTGKPMLPEENFEPQPVHFTMASQEMNLETPPPITATPIPPVPKPRTLQPGKGVEGRPSSGKPEPDEAPSVTGTVESPPPEAQEAPSLAPKVPPRRKKSAPAAFHLQVLQNNSQVLQGLTCSSSSPPSLKPDTHPLCLQVALGTSSARSPETHGPRVTEPEAASFHGNYPDPFWSLLHHPKLLNNTWLSKSSEPLDVGSRNPERTHTEPAQVNASLAERGLPPDHGGKDLSHWVTASNKDKRTTLGV

target: CK2α, endogenous in mouse tissues (mouse (endogenous in C57BL/6J gastrocnemius muscle, epididymal fat, liver)) (UniProt Q60737); experiment: affinity purification with mass spectrometry; CK2α immunoprecipitation (rabbit IgG as control) from gastrocnemius muscle and epididymal fat of mice 30 min after MOTS-c or sterilized water; LC-MS/MS, n = 3 per condition

binding, binds:
B1
B2
B3
